In PubChem BioAssay AID2685 (National Center for Advancing Translational Sciences (NCATS), 2010):
About 2,100 (0.66%) of roughly 320,000 compounds were called active. This list was built around the results that the source calls inconclusive (neither active nor inactive); the mix of calls is not that of the screen. Calls follow the shape of the dose curve; as a rule, active = well fitted inhibition curve with a large enough effect in the signal ratio, with a control signal flat (not every such curve was filed as active); inconclusive = small, poorly fitted or top-dose-only effect, or effect the other way, or a change in a side signal; inactive = flat fitted curve, though single readings scatter; the % refers to the signal ratio. Potencies beside an inconclusive call are fits to weak or partial responses and may not hold up.

assay: qHTS Assay for Lipid Storage Modulators in Drosophila S3 Cells; details: BODIPY lipid droplet fluorescence, 18-24 h, cells fed with added oleic acid; lipid storage change, negative = inhibition: at 46.1 µM (top of the series) unless noted
Summary of the method: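 Laser-scanning cytometry quantifies lipid droplet accumulation (500–530 nm total intensity; droplet/cell object ratio) in oleic acid-fed (400 uM added) Drosophila S3 cells treated with a concentration series. 20 uM Triacsin C defined 100% inhibition.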
% is scaled to controls: 0 for no effect and ±100 for the full control effect; potency is read from the fitted curve at half-maximal effect.

| Compound | lipid storage change, negative = inhibition | Potency |
| --- | --- | --- |
| CC(C)(NC(=O)c1ccccc1)c1nc2ccccc2s1 |  | inconclusive: 2.31 µM [activator, partial curve, poor fit] |
| CCN1C(=O)[C@H]2[C@@H](c3ccc(C)cc3)N3C(=O)N(c4cccc(F)c4)C(=O)[C@@]3(CC)[C@H]2C1=O |  | inconclusive: 29.1 µM [activator, single point] |
| Cc1ccc(C(=O)N[C@H](C(=O)OCc2cc(=O)n3c(n2)sc2ccccc23)C(C)C)cc1 | inactive |  |
| Cc1cc(C)n2nc(C(=O)Nc3cccc(S(=O)(=O)N(C)c4ccccc4)c3)nc2n1 |  | active: 11.6 µM |
| Cc1cc2c(cc1S(=O)(=O)N(C)Cc1ccccc1)OCC(=O)N2 | inconclusive: -36.7% |  |
| CC(=O)Nc1ccc(S(=O)(=O)NCCC(=O)OCC(=O)c2ccc(F)c(F)c2)cc1 | inconclusive: 25.3% |  |
| CC1CCN(C(=O)CC2C(=O)Nc3c2c(=O)n(C)c(=O)n3Cc2ccccc2)CC1 (configuration not stated) |  | inconclusive: 29.1 µM [activator, single point] |
| COc1ccc(S(=O)(=O)N2CCC(C(=O)N[C@@H](C)C(=O)NCc3ccccc3OC)CC2)cc1 |  | inconclusive: 29.1 µM [activator, single point] |
| Cc1c(NC(=O)CN2CCN(C(=O)c3ccco3)CC2)c(=O)n(-c2ccccc2)n1C | inconclusive: -7.54% |  |
| CCN(CC(=O)Nc1ccc(NC(C)=O)cc1)CC(=O)Nc1cc(C)on1 |  | inconclusive: 29.1 µM [activator, single point] |
| COc1ccc(C(=O)Nc2ccccc2N2CCOCC2)cc1[N+](=O)[O-] | inconclusive: 8.01% |  |
| CCc1ccccc1NC(=O)CN(C1CCCCC1)S(C)(=O)=O |  | inconclusive: 20.6 µM [falling, single point] |
| Cc1cccc(OCC(O)CN2CCN(C3CCCCC3)CC2)c1 (configuration not stated) |  | inconclusive: 5.8 µM [falling, single point] |
| COc1ccc(C(=O)Nc2nnc(C)s2)cc1S(=O)(=O)N1CCOCC1 | inconclusive: -21.5% |  |
| Cc1cccc(C(=O)Nc2ccc(C(=O)/C=C/c3cccnc3)cc2)c1 | inconclusive: 33% |  |
| COc1ccc([C@H]2CC(=O)C=C(c3ccc(Cl)cc3C)C2)cc1 |  | inconclusive: 32.6 µM [falling, single point] |
| CCOc1ccc(S(=O)(=O)N2CCN(c3ccccc3F)CC2)c2cccnc12 |  | inconclusive: 9.2 µM [activator, partial curve] |
| O=C(NC1(C(F)(F)F)NC(=O)N(C2CCCCC2)C1=O)c1cccs1 (configuration not stated) | inconclusive: 38.7% |  |
| Cc1cc(C)n(CC(=O)Nc2ccccc2)n1 | inconclusive: -8.99% |  |
| COc1ccc(C2CC(=O)C(C3NCCc4ccccc43)=C(O)C2n2cncn2)cc1 (configuration not stated) | inconclusive: 9.38% |  |
| COC(=O)[C@@H](Cc1ccc(O)cc1)NC(=O)[C@H]1CCC(=O)N1C(=O)OCc1ccccc1 | inactive |  |
| COc1ccc(C(=O)N/C(=C\c2ccccc2)C(=O)N2CCOCC2)cc1 |  | inconclusive: 13 µM [rising, partial curve, poor fit] |
| COc1ccccc1NC(=O)C1CCCN1C(=O)NCc1ccccc1 (configuration not stated) | inconclusive: -2.43% |  |

| Compound | lipid storage change, negative = inhibition | Potency |
| --- | --- | --- |
| COC(=O)CSc1nc2cc3c(cc2cc1C)OCCO3 | inconclusive: 47.2% |  |
| COc1ccc(C(CNC(=O)c2cc(C)oc2C)N2CCOCC2)cc1 (configuration not stated) | inconclusive: 36.5% |  |
| Cc1noc(C)c1COC(=O)c1ccc(-c2nc3ccccc3s2)s1 | inconclusive: 106% |  |
| CCOC(=O)C1CCN(c2c(NCCC(C)C)c(=O)c2=O)CC1 | inconclusive: -15.7% |  |
| CSc1nc2ccc(S(=O)(=O)N3CCc4ccccc43)cc2s1 | inconclusive: 54.6% |  |
| C/C(=N\NC(=O)c1ccccc1)c1ccc2c(c1)OCO2 |  | inconclusive: 13 µM [activator, partial curve, poor fit] |
| O=C(Nc1ccc([N+](=O)[O-])cc1)c1ccccc1 | inconclusive: -12.5% |  |
| Fc1ccc(OCc2cc(-c3ccccc3)no2)cc1 | inconclusive: 12.4% |  |
| Nc1nc(N2CCN(C(=O)c3ccco3)CC2)nc2ccccc12 | inactive |  |
| CCOC(=O)C1CCCN(CCC(=O)Nc2cccc(Cl)c2C)C1 (configuration not stated) | inconclusive: 17.4% |  |
| CCN(C(=O)CCc1nc(-c2ccccc2F)no1)c1cc(OC)ccc1OC |  | inconclusive: 1.3 µM [activator, full curve] |
| CN(Cc1cccc(F)c1)C(=O)c1cc(=O)[nH]c2ccccc12 |  | inconclusive: 14.6 µM [activator, single point] |
| C#CCC(NC(=O)c1ccc(C(F)(F)F)cc1)C(=O)NCCC (configuration not stated) | inconclusive: -2.19% |  |
| CC1(C)CC(=O)C=C(c2ccc3ncccc3c2)C1 |  | inconclusive: 1.03 µM [activator, full curve, poor fit] |
| O=C(Nc1ccncc1)c1ccc(S(=O)(=O)Nc2ccccc2)cc1 |  | inconclusive: 14.6 µM [falling, single point] |
| O=C(c1ccccc1)n1c(=S)nc2ccccn21 | inconclusive: 42.1% |  |
| Cc1nn(CC(=O)NC2C(=O)N3C(C(=O)O)=C(CSc4nnnn4C)CSC23)cc1Br (configuration not stated) | inconclusive: -17% |  |
| CC(C)(C)NC(=O)Cn1nnc(-c2ccc(Cl)cc2)n1 |  | inconclusive: 6.51 µM [activator, single point] |
| Cc1cccc(-c2cc3nc4c(c(N5CCOCC5)n3n2)CCCC4)c1 |  | inconclusive: 6.51 µM [rising, single point] |
| CN(/C=C/C(=O)C(F)(F)C(F)(F)F)Cc1ccccc1 | inconclusive: 19.3% |  |
| Cc1ccc2nc(SCC(=O)NCCCN3CCCC3=O)[nH]c2c1 |  | inconclusive: 0.82 µM [cytotoxic, single point] |
| Cn1c(SC(C(=O)Nc2ccc(F)cc2)c2ccccc2)nc2ccccc21 (configuration not stated) | inconclusive: 29.1% |  |
| CCOC(=O)C1=C(N)n2c(s/c(=C\c3ccco3)c2=O)=C(C(=O)OC(C)C)C1c1ccco1 (configuration not stated) |  | inconclusive: 9.2 µM [falling, partial curve, poor fit] |

A second format for 2 compounds above:
Compound | lipid storage change, negative = inhibition | Potency
Cc1cc(C)n2nc(C(=O)Nc3cccc(S(=O)(=O)N(C)c4ccccc4)c3)nc2n1 |  | active: 11.6 µM
COc1ccc(S(=O)(=O)N2CCC(C(=O)N[C@@H](C)C(=O)NCc3ccccc3OC)CC2)cc1 |  | inconclusive: 29.1 µM [activator, single point]
